Data as given in patent US20120165340A1, “PTEN PHOSPHORYLATION-DRIVEN RESISTANCE TO CANCER TREATMENT AND ALTERED PATIENT PROGNOSIS” (Ludwing Institute for Cancer Research Ltd., priority 2009, published 2012).
At least one structure is not confirmed: it was looked up by name or label, or the drawing left a doubt.

What was measured:
[1] = tested on: GBM39 cells; assay: PTEN Y240 phosphorylation in GBM39 glioma cells, western blot; type: cell-based, human
Description: Mice were sacrificed by CO2 inhalation followed by cervical dislocation, according to institutional guidelines. Subcutaneous tumors were removed and tumor tissue was minced into 0.1-0.5 mm^3 chunks in a 60 mm dish with 5 ml of freshly prepared, filter-sterilized digestion solution (12,500 units of Collagenase Type 2, 12,500 units of Collagenase Type 4, 20 mL DMEM (Serum Free), 20 uL of 1 mg/mL DNAase I). Tissue was placed into a sterile 15 ml specimen cup with an additional 10 ml of digestion solution and shaken (150 rpm) at 37 C for 3 hours before filtration through a 70/40 um filter. After centrifugation at 1000 rpm for 3 minutes, the supernatant was discarded. The pellet was resuspended in 1 ml of ACK buffer (150 mM NH4Cl, 10 mM KHCO3, 0.1 mM Na2EDTA, adjusted to pH 7.2-7.4 with 1N HCl) and incubated at room temperature for 3 minutes to lyse red blood cells. Cells were pelleted by centrifugation at 1000 rpm for 3 minutes and resuspended in culture medium (DMEM containing 10% fetal bovine serum plus L-glutamine and penicillin/streptomycin). Cell viability was determined by trypan blue exclusion and cells were plated at a density of approx 10^6 cells per 100 mm culture dish. Cells were maintained under standard cell culture conditions (37 C, 5% CO2 in a humidified incubator) and all experiments were conducted in cells prior to p4.
For detection of PTEN Y240 phosphorylation in glioma cell lines, GBM39 was grown as described (main methods section) and cells were treated as indicated with 100 nM Dasatinib for one hour prior to treatment with 100 μM Sodium Pervanadate for 15 minutes. Cells were lysed in RIPA buffer as previously and western blots were probed with PTEN pY240 antibody and total PTEN.

[2] = tested on: Ink4a/Arf-/- astrocytes; assay: Drug sensitivity assay, cell viability by WST-1; type: cell-based, mouse; details: parental and EGFRvIII-expressing astrocytes, 72 hours
Source text: Mouse Astrocytes. Ink4a/Arf^−/−1 and Pten^loxP/loxP 2 mice were obtained from the NCI mouse depository and intercrossed to generate described genotypes. Primary astrocytes were isolated from the neocortex of 4 day old pups, using standard astrocyte isolation culture conditions (Bachoo et al 2002). Conditional deletion of Pten^loxP/loxP was accomplished by infecting astrocyte cultures with adenovirus expressing Cre recombinase under the CMV promoter (Gene TransferVector Core, University of Iowa, Iowa City, Iowa). Effective Pten deletion was verified by western blot. EGFRvIII was expressed in these cells by retroviral infection as described previously (Bachoo et al 2002). (Reference: Bachoo, R. M. et al. Epidermal growth factor receptor and Ink4a/Arf: convergent mechanisms governing terminal differentiation and transformation along the neural stem cell to astrocyte axis. Cancer Cell 1, 269-77 (2002)).
Drug sensitivity assays. Cells were plated at 1000 cells/well in 96 well plates and allowed to adhere for four hours prior to addition of Erlotinib and/or Dasatinib or solvent (DMSO) control. Cells were maintained in 5% serum during drug treatments and cell viability was measured using WST-1 assay (Clontech) following 72 hours exposure to drug.
Statistical analysis. For quantitation and analysis of immunohistochemistry data, see above. […]

[3] = tested on: TS543 cells; assay: PTEN Y240 phosphorylation in TS543 neurosphere line, western blot; details: TS543, 100 nM Dasatinib for 24 hours

Cc1nc(Nc2ncc(C(=O)Nc3c(C)cccc3Cl)s2)cc(N2CCN(CCO)CC2)n1 [Dasatinib]
pervanadate-induced increase in Y240 phosphorylation ([1]; 100 nM Dasatinib one hour before pervanadate): sensitive to dasatinib
PTEN Y240 phosphorylation ([1]; treatment with Dasatinib): decreased PTEN Y240 phosphorylation
phosphorylation of downstream pathway components PRAS40 and 40S ribosomal S6 protein ([1]; treatment with Dasatinib): decreased the phosphorylation of downstream pathway components
sensitization to Erlotinib by added Dasatinib (cell viability) [2]: sensitized both parental and EGFRvIII-expressing astrocytes to Erlotinib
Y240 phosphorylation [3]: dasatinib-sensitive Y240 phosphorylation
